Results deposited as PubChem BioAssay AID652259 (Drosophila RNAi Screening Center, 2013)

Test: 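Genome-wide hunt for genes that control Wingless pathway activity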 (primary screen)
Cells: Drosophila clone 8 imaginal disc epithelial cells
Knock-down reagent: long dsRNA against Drosophila genes
Treatment: pathway stimulated by co-transfected Wingless expression plasmid
Detection: 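Dual luciferase reads per well after Wingless plasmid stimulation: reporter firefly light and Renilla control light; activity is firefly divided by Renilla, a ratio not deposited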
Reading the numbers: firefly reporter light: higher = more Wg reporter light, before normalisation; Renilla control light: higher = more transfected or surviving cells
Hit rule: 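a knock-down is a candidate when at least two out of four statistical tests show it departing from its plate mean; one test alone signals a weak candidate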
Meaning of the calls: active = candidate regulator (raises or lowers reporter); inactive = not a candidate
The screen tested about 22,000 reagents; below is a random part of those that have a named target and a result. Over the whole deposit, 233 (1.1%) were called active. 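Light values are raw, unnormalised plate reads; the ratio scores behind the reporter calls were not deposited.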 Entries without a mark were called inactive. A plus sign joins genes that one reagent is predicted to hit. The record does not give: the amount of reagent, the time to read-out, the dose of the treatment.

| target | amplicon | reporter change call, replicate 1 | firefly reporter light, replicate 1 | firefly reporter light, replicate 2 | Renilla control light, replicate 1 | Renilla control light, replicate 2 |
| --- | --- | --- | --- | --- | --- | --- |
| CG17005 (GeneID 34249) | DRSC02556 | – | 2801 | 5992 | 832 | 2762 |
| Cpr49Ae (GeneID 36351) | DRSC07201 | – | 9634 | – | 2290 | – |
| osk (GeneID 41066) | DRSC17023 | – | 5060 | – | 1681 | – |
| CG5639 (GeneID 43314) | DRSC15851 | – | 5360 | – | 2736 | – |
| CG12920 (GeneID 36052) | DRSC06234 | – | 3249 | 4608 | 792 | 1949 |
| CG30395 (GeneID 246589) | DRSC03896 | – | 18028 | – | 10416 | – |
| obst-A (GeneID 33022) | DRSC20543 | – | 3229 | 10946 | 1284 | 3719 |
| CG30371 (GeneID 35806) | DRSC06835 | – | 1744 | 6585 | 550 | 2491 |
| Gk1 (GeneID 43913) | DRSC08533 | – | 10840 | – | 3588 | – |
| Gk1 (GeneID 43913) | DRSC08534 | – | 3751 | – | 2116 | – |
| tgy (GeneID 32896) | DRSC20045 | – | 12501 | – | 7702 | – |
| Reck (GeneID 39629) | DRSC10504 | – | 5601 | – | 2673 | – |
| Reck (GeneID 39629) | DRSC10505 | – | 8477 | – | 2208 | – |
| CHES-1-like (GeneID 31678) | DRSC18447 | – | 16129 | – | 9155 | – |
| MsR2 (GeneID 38296) | DRSC08336 | – | 10192 | – | 4348 | – |
| MsR2 (GeneID 38296) | DRSC08337 | – | 5304 | – | 2477 | – |
| MsR2 (GeneID 38296) | DRSC22440 | – | 5.84e5 | 5.23e5 | 1.99e5 | 1.14e5 |
| Met75Ca + Met75Cb | DRSC09549 | – | 3357 | – | 1901 | – |
| Met75Ca + Met75Cb | DRSC11221 | – | 11009 | – | 3770 | – |
| Vamp7 (GeneID 36015) | DRSC06599 | – | 3456 | 11913 | 1110 | 4193 |
| mthl14 (GeneID 318046) | DRSC07865 | – | 2618 | – | 1321 | – |
| Arp6 (GeneID 32514) | DRSC19326 | – | 2630 | 8185 | 1098 | 2162 |
| Gr98d (GeneID 43309) | DRSC14571 | – | 6364 | – | 3084 | – |
| Ubc10 (GeneID 37035) | DRSC07568 | – | 9284 | – | 1912 | – |
| Dgkepsilon (GeneID 36408) | DRSC07399 | – | 9000 | – | 3195 | – |
| CG34125 (GeneID 4379886) | DRSC00850 | – | 19800 | – | 8167 | – |
| CG5103 (GeneID 40012) | DRSC10481 | – | 5328 | – | 2397 | – |

Look-ups from the list:
Under “Renilla control light, replicate 1”, Cpr49Ae (GeneID 36351) [DRSC07201] is entered as 2290
Value of CG12920 (GeneID 36052) [DRSC06234] under “Renilla control light, replicate 1”: 792
obst-A (GeneID 33022) [DRSC20543], firefly reporter light, replicate 2: 10946
Result for mthl14 (GeneID 318046) [DRSC07865] in “firefly reporter light, replicate 1”: 2618
Under “firefly reporter light, replicate 1”, Gr98d (GeneID 43309) [DRSC14571] is entered as 6364
Under “firefly reporter light, replicate 1”, CG17005 (GeneID 34249) [DRSC02556] reads 2801

Continued:
| target | amplicon | reporter change call, replicate 1 | firefly reporter light, replicate 1 | firefly reporter light, replicate 2 | Renilla control light, replicate 1 | Renilla control light, replicate 2 |
| --- | --- | --- | --- | --- | --- | --- |
| CG15564 (GeneID 43696) | DRSC15102 | – | 7019 | – | 2953 | – |
| CHMP2B (GeneID 38599) | DRSC10436 | – | 4677 | – | 1829 | – |
| CG42390 (GeneID 42600) | DRSC15866 | Wg reporter activity raised | 4579 | 7920 | 569 | 1136 |
| Art9 (GeneID 41698) | DRSC16584 | – | 20400 | – | 4889 | – |
| lbl (GeneID 42541) | DRSC16986 | – | 37092 | – | 6336 | – |
| yellow-d2 (GeneID 37704) | DRSC04591 | – | 2752 | 4488 | 656 | 2001 |
| Non1 (GeneID 35963) | DRSC05954 | – | 7072 | – | 1548 | – |
| CG12911 (GeneID 36081) | DRSC06226 | – | 2208 | 6357 | 769 | 2504 |
| Gr64d + Gr64e | DRSC08446 | – | 7088 | 8.45e5 | 3565 | 4.27e5 |
| CG7523 (GeneID 42125) | DRSC16254 | – | 2747 | 6416 | 1042 | 1844 |
| l(1)G0004 (GeneID 33033) | DRSC20486 | – | 3536 | 5207 | 1581 | 2320 |
| alpha-Cat (GeneID 40517) | DRSC11917 | – | 13018 | – | 3596 | – |
| CG30099 (GeneID 36818) | DRSC07039 | – | 6288 | – | 2957 | – |
| mRpS21 (GeneID 318249) | DRSC12965 | – | 4517 | – | 1221 | – |
| mRpS21 (GeneID 318249) | DRSC21357 | – | 3.17e5 | 3.30e5 | 1.45e5 | 1.22e5 |
| CG13457 (GeneID 39649) | DRSC10004 | – | 4641 | – | 3561 | – |
| CG3632 (GeneID 32589) | DRSC19137 | – | 5537 | – | 1752 | – |
| CG3632 (GeneID 32589) | DRSC19871 | – | 1837 | 6188 | 758 | 1952 |
| Obp57c (GeneID 37311) | DRSC06384 | – | 5147 | – | 1610 | – |
| d4 (GeneID 35485) | DRSC04881 | – | 21368 | – | 8252 | – |
| d4 (GeneID 35485) | DRSC22674 | – | 4.89e5 | 5.09e5 | 2.06e5 | 67536 |
| CG14743 (GeneID 35860) | DRSC06479 | – | 1857 | 5153 | 778 | 2487 |
